PubChem BioAssay AID504784, Drosophila RNAi Screening Center | 2011
The screen tested about 17,000 reagents; shown is a random part of those that have a named target and a result. 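Each column is one replicate's B-score; the combined score over replicates was not deposited, so single values may mislead.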 Further read-outs or replicates are left out here.

Aim: 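Fly genes whose silencing alters how much lipid cells keep in droplets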 (primary screen)
Cell system: Drosophila Kc167 embryonic cells
Knock-down reagent: long dsRNA against Drosophila genes, about 250 ng dsRNA per well
Duration: 4 days
Treatment: cells fed 400 µM oleic acid bound to BSA
Read-out: 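Microscope images give a droplet-to-nucleus area ratio, taken as log and converted to a screen-wide B-score; higher values mean greater lipid storage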
Reading the numbers: droplet/nuclear area B-score: higher = more stored lipid (overstorage)

droplet/nuclear area B-score, replicate 1, by target gene and reagent
CG4324: DRSC04462 -0.284
Exn: DRSC09673 -0.135; DRSC10077 -0.941
ACOX1: DRSC05941 0.821
GstZ1: DRSC16478 -0.58
lms: DRSC06387 -0.0667
nerfin-1: DRSC08729 -0.279
Hrb98DE: DRSC16709 1.31
Nipsnap: DRSC20169 -0.451
CG32727: DRSC17519 0.119
CG14277: DRSC02380 0.714
MED11: DRSC10739 -2.44; DRSC23091 -0.346
Tif-IA: DRSC03717 -0.479; DRSC03726 -0.077
Pmm2: DRSC09780 0.0139
Fas2: DRSC17308 0.461; DRSC17309 -0.572; DRSC18664 -0.796
Cpr62Bc: DRSC08545 1.71
CG17032: DRSC10241 -0.17
scb: DRSC05542 0.529; DRSC07678 0.795
side: DRSC14523 1.14; DRSC14716 -2.51; DRSC14717 -1.48; DRSC14718 -0.698; DRSC14721 1.93
uif: DRSC03427 -1.39
CG18585: DRSC02678 2.23
CG1314: DRSC20495 0.226
Rpp21: DRSC22480 0.272
scf: DRSC08735 0.788
Ir94e: DRSC15229 0.121

A few values from the entries so far.
For “droplet/nuclear area B-score, replicate 1”, Nipsnap [DRSC20169] shows -0.451
Under “droplet/nuclear area B-score, replicate 1”, CG18585 [DRSC02678] reads 2.23
